Results from EP4814014A1, “BINDING MOLECULE AND ANTIBODY-DRUG CONJUGATE AND USE THEREOF” (priority 2023, dated 2025).
No constants are given. Whether binding was seen depends on the method and setting. Some results given as binding are weak or reduced against the parent protein; the word gives no strength. Sequences can lack the tags named with a protein. One block for each binder: values may come before it.

The chains behind the UniProt entries cited, without tags or fusion partners. Residues count along the entry.
UniProt P08581, residues 25-932: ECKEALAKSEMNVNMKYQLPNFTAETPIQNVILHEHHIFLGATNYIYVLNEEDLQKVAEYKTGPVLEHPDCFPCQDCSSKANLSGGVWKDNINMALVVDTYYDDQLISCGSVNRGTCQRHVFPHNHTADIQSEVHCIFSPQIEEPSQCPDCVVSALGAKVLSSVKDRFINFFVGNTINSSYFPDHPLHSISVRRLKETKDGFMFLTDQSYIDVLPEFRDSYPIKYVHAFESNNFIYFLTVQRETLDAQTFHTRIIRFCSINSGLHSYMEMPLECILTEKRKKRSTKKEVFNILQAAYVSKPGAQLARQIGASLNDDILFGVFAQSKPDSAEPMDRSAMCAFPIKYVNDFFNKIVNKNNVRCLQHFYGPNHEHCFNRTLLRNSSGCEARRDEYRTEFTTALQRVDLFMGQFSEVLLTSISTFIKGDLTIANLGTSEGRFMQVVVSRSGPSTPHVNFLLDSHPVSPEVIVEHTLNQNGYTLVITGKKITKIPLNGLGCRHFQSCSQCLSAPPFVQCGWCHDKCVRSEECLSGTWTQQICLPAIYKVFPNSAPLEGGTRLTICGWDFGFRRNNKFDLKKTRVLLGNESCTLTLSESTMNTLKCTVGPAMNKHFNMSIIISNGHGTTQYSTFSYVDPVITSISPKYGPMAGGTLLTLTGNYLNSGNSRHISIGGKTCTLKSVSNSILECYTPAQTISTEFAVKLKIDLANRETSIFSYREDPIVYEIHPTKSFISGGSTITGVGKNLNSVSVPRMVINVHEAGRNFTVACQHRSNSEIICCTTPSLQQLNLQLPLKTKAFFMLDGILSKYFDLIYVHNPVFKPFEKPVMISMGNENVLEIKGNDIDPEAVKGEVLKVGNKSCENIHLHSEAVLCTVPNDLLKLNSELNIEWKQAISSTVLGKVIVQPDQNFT

Experiments:
Human cMet antigen [1] = biological target: T1, Human cMet antigen (human, UniProt P08581 25-932); test: ELISA, antigen coated, VHH-Fc titrated
T1 construct: treated as one molecule; also called Human cMet-His antigen

Human cMet antigen [2] = biological target: T1, Human cMet antigen; test: SPR, V-n9A2 on CM5 chip, human cMet antigen 300 nM injected
Human cMet antigen [3] = biological target: T1, Human cMet antigen; test: SPR, V-n7A12 injected over cMet held by V-n9A2

binding (Human cMet antigen [1]): binds | binding (Human cMet antigen [2]): binds
B1: V-n9A2 anti-cMet VHH-Fc (Fc fusion, not shown: a dimerising Fc or GST)
chain: QSQLAESGGGLVQSGGSLGLSCVASGFTISRSIMSWYRQPPGKERDWVASIGSAGNTNYVDSVKGRFTISRDVAKNTVYLQMNSLKPEDTAVYYCKTTLAVSFSEYWGQGTQVTVSS
notes: Bivalent VHH-Fc

binding (Human cMet antigen [1]): binds | binding (Human cMet antigen [3]): binds
B2: V-n7A12 anti-cMet VHH-Fc (Fc fusion, not shown: a dimerising Fc or GST)
chain: EVQLVESGGGLVQAGGSLRLSCVASGNIFSSNHMGWFRQAPGKQREFIAYITTREITNYADSVKGRFTISRDNTKNTVYLQMNVLKPEDTAVYYCIADQSREIRRSWGQGTQVTVSS
notes: Bivalent VHH-Fc
